Paper PMC9984387, “The dynamic nature of netrin-1 and the structural basis for glycosaminoglycan fragment-induced filament formation” (Nature Communications, 2023)

B1: glypican-5 (NP_780709 aa 25-549) (domain or fragment, UniProt Q8CAL5 25-549)
chain: EGVESCEEVRKLFQWRLGGAVKGLPEAPRAGPDLQVCLSKNPTCCTRKMEERYQIAARQDLQQVLQTSSSTLKLLISRNAAAFQETLETLIRQAENYTSILFCNTYRNMALEAAASIQEFFTDVGLYLFGADVNPEEFVNRFFDSLFPLVYNHLINPGVTDSSLQYSECIRMARQDVSPFGNIPKRVMGQMGRSLLPGRTFLQALNLGIEVINTTDHIHFSKECSRALLKMQYCPHCQSLMLSKPCMGYCLNVIRGCLAHMTELNPHWHAYIRSLEELSDAMHGTYDVEHVLLNFHLLVNDAVLQAHLNGQKLLDQVNTICGHPVRTPTQSPRCTFDPSKEKHGMKISARNGEETLANRRKEFINSLRLHGSFYGGLADQLCVNELAAPEGRPCWNGEEIVKSYAQRVVGNGIKAQSANPEVRVRGTDPVVNQIIDKLKHVIQLLRGRSPKPNKWELLQPGSGGGMLENSSGDCDDEDGCGGSGSGEVKRTLKITNWMPDSMNFSDVKQVHRADHGSTLDTTSTG
B2: SMOC-1 (NP_071711 aa 26-452) (protein, UniProt Q8BLY1 26-452)
chain: HRTTGPRFLISDRDPPCNPHCPRTQPKPICASDGRSYESMCEYQRAKCRDPALAVVHRGRCKDAGQSKCRLERAQALEQAKKPQEAVFVPECGEDGSFTQVQCHTYTGYCWCVTPDGKPISGSSVQNKTPVCSGPVTDKPLSQGNSGRKVSFRFFLTLNSDDGSKPTPTMETQPVFDGDEITAPTLWIKHLVIKDSKLNNTNVRNSEKVHSCDQERQSALEEARQNPREGIVIPECAPGGLYKPVQCHQSTGYCWCVLVDTGRPLPGTSTRYVMPSCESDARAKSVEADDPFKDRELPGCPEGKKMEFITSLLDALTTDMVQAINSAAPTGGGRFSEPDPSHTLEERVAHWYFSQLDSNSSDDINKREMKPFKRYVKKKAKPKKCARRFTDYCDLNKDKVISLPELKGCLGVSKEGGSLGSFPQGKR
B3: SMOC-2 (NP_071710 22-447) (protein, UniProt Q8CD91-1 22-447)
chain: QKFSALTFLRVDQDKDRDCSLDCPSSPQKPLCASDGRTFLSRCEFQRAKCKDPQLEIAHRGNCKDVSRCVAERKYTQEQARKEFQQVFIPECNDDGTYSQVQCHSYTGYCWCVTPNGRPISGTAVAHKTPRCPGSINEKVPQREGAGKADDAAAPALETQPQGDEEDIASRYPTLWTEQVKSRQNKTNKNSASSCDQEHQSALEEAKQPKNDNVVIPECAHGGLYKPVQCHPSTGYCWCVLVDTGRPIPGTSTRYEQPKCDNTARAHPAKARDLYKNRPLQGCPGAKKHEFLTSVLDALSTDMVHAVSDPSSSSGRLSEPDPSHTLEERVVHWYFKLLDKNSSGDIGKKEIKPFKRFLRKKSKPKKCVKKFVEYCDMNNDKSITVQELMGCLGVTREEGKANTRKRHTPRGNAESSSSNRQPRKQG
B4: testican-1 (NP_033288 aa 22-442) (protein, UniProt Q62288 22-442)
chain: RHLDALAGGAALNNANFLDNDQWLSTVSQYDRDKYWNRFRDGIQDDYFRNWNPNKPFDQALDPSKDPCLKVKCSPHKVCVTQDYQTALCVSRKHLLPRQKKGNVAHKHWLGPSNLVKCKPCPVAQSAMVCGSDGHTYTSKCKLEFHACSTGKSLNSLCDGPCPCLPEPEPLKPKAEKSACTDKELRNLASRLKDWFGALHEDANRVIKPTSSDPAQGRFDTSILPICKDSLGWMFNKLDMNYDLLLDHSEINAIYLDKYEPCIKPLFNSCDSFKDGKLSNNEWCYCFQKPAGLPCQNEMNRIQKLSKGKSLLGAFIPRCNEEGYYKATQCHGSTGQCWCVDKYGNELAGSRKQGTVSCEEEQETSGDFGSGGSVVLLDDLEDERELGPKDKEGKLRVRTRAVREDDEDEDDDKEDEVGYIW
B5: testican-2 (NP_443720 aa 23-423) (protein, UniProt Q9ER58 23-423)
chain: EGDAKGLKEGETPGNFMEDEQWLSSISQYSGKIKHWNRFRDEVEDDYIKSWEDNQQGDEALDTTKDPCQKVKCSRHKVCVAQGYQRAMCISRKKLEHRIKQPSLKLHGGKDSVCKPCHMAQLASVCGSDGHTYSSVCKLEQQACLSSKQLAVRCEGPCPCPTEQSTASTTDSKSETCTGQDLADLGDRLRDWFQLLRENSKQNGSANSATNPAGLDKSLGASCKDSIGWMFSKLDTSGDLFLDQTELAAINLDKYEVCIRPFFNSCDTYKDGRVSTAEWCFCFWREKPPCLAELERTQIQEAAKKKPGVFIPSCDEDGYYRKMQCDQSRGDCWCVDQLGLELTGTRMHGTPDCDDIVGFSGDFGSGVGWEDEEEKETEEAGEEAEEEEGEAGEADDGGYIW

Target: His-tagged NET1ΔC (coated in ELISA) (not stated (chicken or mouse cDNA cloned))
Test: ELISA; NET1ΔC coated; serial dilutions of strep-tagged HSPGs (0.5–500 nM) in solution; detection with strep-HRP; apparent constants; both purified

Binder | binding
B1 | binds
B2 | binds
B3 | binds
B4 | binds
B5 | binds

No constants are given. Whether binding was seen depends on the method and setting. Binding can be weak; no strength is given.
